Key:
Format in all cases: biochemical
[1] = molecular target: T1, ENZ1 SEQ ID N°1 (Catenulispora acidiphila, UniProt C7QJ42); experiment: Substrate selectivity screening of hydroxylase (conversion by HPLC after Fmoc-Cl derivatization); conditions: pH 7
T1 construct: His6 (hexahistidine, inserted after the initial methionine) (N); made in house; host or cells: E. coli BL21(DE3) plysE
T1 sequence (C7QJ42 1-358): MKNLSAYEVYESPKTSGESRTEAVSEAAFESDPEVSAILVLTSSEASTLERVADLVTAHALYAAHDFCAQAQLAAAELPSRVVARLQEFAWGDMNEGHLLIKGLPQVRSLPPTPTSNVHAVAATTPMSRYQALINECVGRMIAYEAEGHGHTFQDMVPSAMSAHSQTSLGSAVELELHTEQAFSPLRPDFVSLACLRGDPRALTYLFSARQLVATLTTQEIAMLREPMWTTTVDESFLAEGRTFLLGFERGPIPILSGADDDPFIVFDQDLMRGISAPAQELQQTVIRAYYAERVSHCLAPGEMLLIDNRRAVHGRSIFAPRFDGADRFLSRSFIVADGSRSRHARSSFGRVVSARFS
Method: (§1) Enzymatic reaction medium (0.2 µmole, leq.), borate buffer 0,2M pH 7.7 (80 µL) and Fmoc-Cl solution7.5 mM in acetone (100 µL, 0.75 µmole, 3.75 eq) were hand shaked in a closed 1.50 mL eppendorf for one minute. The aqueous layer was extracted with petroleum ether (3*1 mL) to eliminate excess of Fmoc-Cl. 70 µL of the aqueous phase were withdrawn, diluted with 70 µL of acetonitrile and injected into the HPLC. For substrates with two amine functions, 100 µL of Fmoc-Cl solution 15 mM were used.
(§2) Conditions for HPLC analysis: Atlantis® T3 (3 µm 4.5*150 mm) at 35°C with the gradient 50-86% eluent B (MeCN + 0.1% TFA) and eluent A (H2O + 0.1% TFA) in 20 min at 1 mL/min.
(§3) Enzymes (0.08 mg/mL) were screened against substrates (molar ratio α-ketoglutarate/substrate 15/10) in Hepes buffer 50 mM pH 7,5, with Mohr's salt at 1mM and without sodium ascorbate, at room temperature for three hours. The potential conversions of the substrates were determined by HPLC after Fmoc-Cl derivatization as section III here above.

[2] = molecular target: T2, ENZ4 SEQ ID NO:4 (Catenulispora acidiphila, UniProt C7Q942); experiment: as above; conditions: pH 7
T2 construct: His6 (hexahistidine, inserted after the initial methionine) (N); made in house; host or cells: E. coli BL21(DE3) plysE
T2 sequence (C7Q942 1-343): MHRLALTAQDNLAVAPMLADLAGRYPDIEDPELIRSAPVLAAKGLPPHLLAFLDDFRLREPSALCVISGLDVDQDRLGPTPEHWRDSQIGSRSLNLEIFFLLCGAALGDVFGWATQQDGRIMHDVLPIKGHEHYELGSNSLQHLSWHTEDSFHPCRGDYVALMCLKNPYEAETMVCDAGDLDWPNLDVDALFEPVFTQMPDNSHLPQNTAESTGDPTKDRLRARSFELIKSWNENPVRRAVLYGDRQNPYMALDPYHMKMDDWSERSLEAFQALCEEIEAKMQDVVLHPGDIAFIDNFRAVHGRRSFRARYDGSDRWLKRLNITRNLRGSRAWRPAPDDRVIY
Method: as §1, §2, §3

[3] = molecular target: T3, ENZ2 SEQ ID NO:2 (Flavobacterium johnsoniae, UniProt A5FF23); conditions: pH 7
T3 construct: His6 (hexahistidine, inserted after the initial methionine) (N); made in house; host or cells: E. coli BL21(DE3) plysE
T3 sequence (A5FF23 1-370): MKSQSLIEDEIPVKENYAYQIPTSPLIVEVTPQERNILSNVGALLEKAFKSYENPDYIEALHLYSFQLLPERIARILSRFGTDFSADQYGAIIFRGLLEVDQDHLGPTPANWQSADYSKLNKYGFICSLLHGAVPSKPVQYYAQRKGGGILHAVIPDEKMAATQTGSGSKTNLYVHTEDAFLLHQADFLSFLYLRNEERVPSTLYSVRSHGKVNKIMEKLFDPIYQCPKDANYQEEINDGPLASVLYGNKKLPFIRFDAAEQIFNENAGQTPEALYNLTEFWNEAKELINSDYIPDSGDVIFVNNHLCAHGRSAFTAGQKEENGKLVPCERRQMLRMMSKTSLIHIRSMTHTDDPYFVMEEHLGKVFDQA
Method: as §1, §2, §3

[4] = molecular target: T4, ENZ3 SEQ ID NO:3 (Chitinophaga pinensis, UniProt C7PLM6); conditions: pH 7
T4 construct: His6 (hexahistidine, inserted after the initial methionine) (N); made in house; host or cells: E. coli BL21(DE3) plysE
T4 sequence (C7PLM6 1-382): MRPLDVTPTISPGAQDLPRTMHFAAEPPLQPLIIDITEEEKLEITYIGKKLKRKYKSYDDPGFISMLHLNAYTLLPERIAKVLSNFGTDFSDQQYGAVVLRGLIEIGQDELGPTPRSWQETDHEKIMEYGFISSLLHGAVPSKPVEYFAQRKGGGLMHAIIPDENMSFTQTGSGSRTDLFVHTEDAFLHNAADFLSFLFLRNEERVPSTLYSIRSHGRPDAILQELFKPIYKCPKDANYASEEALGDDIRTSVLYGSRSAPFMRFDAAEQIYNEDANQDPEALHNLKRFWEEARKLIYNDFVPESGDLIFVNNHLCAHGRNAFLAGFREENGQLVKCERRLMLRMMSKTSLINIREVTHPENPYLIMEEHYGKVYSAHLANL
Method: as §1, §2, §3

[5] = molecular target: T2, ENZ4 SEQ ID NO:4; experiment: Enzymatic hydroxylation of L-ornithine and L-arginine, 10 mL scale, conversion by HPLC; conditions: ENZ4 0.595 mg/mL, without sodium ascorbate, room temperature, 18h; HPLC after Fmoc-Cl derivatization (protocol A)
Method: 70 µL of the aqueous phase were withdrawn, diluted with 70 µL of acetonitrile and injected into the HPLC. […]
as §2
Enzymatic reaction medium (0.2 µmole, 1eq), 1% FDAA solution in acetone (50 µL, 1.5 µmoles, 7.5eq) and NaHCO3 solution 1M (10 µl, 10 µmoles, 50 eq.) were stirred in a closed 1.50 mL eppendorf at 43°C, 1000 rpm for 90 minutes. HCl 1M (25 µL) was added. 100 µL were withdrawn, filtered and injected into the HPLC. For substrates with two amine functions, 120 µL of 1% FDAA in acetone were used. […]
Enzymatic reaction was carried out in 250 mL glass erlenmeyer flask for a total volume of 4*10 mL. […] The conversion of L-lysine into 3-hydroxy-L-lysine (94%) was determined by HPLC after derivatization with Fmoc-Cl according to protocol A.
The protocol for L-ornithine hydroxylation was the same as that described above for the hydroxylation of L-lysine by ENZ1 except that the enzyme concentration was 0.595 mg/mL for ENZ4 and the reaction was carried without sodium ascorbate. The conversion of L-ornithine into hydroxylated product (68%) was determined by HPLC after derivatization with Fmoc-Cl according to protocol A. […]

SMILES | potential conversions of the substrates, ENZ1 SEQ ID N°1 [1] | potential conversions of the substrates, ENZ4 SEQ ID NO:4 [2] | potential conversions of the substrates, ENZ2 SEQ ID NO:2 [3] | potential conversions of the substrates, ENZ3 SEQ ID NO:3 [4] | conversion of L-ornithine into hydroxylated product [5] [%]
NCCC[C@@H](N)C(=O)O [D-ornithine] | negative | negative | negative | negative | –
NCCC[C@H](N)C(=O)O [L-ornithine] | negative | positive | negative | negative | 68

— EP2876156A1, “New enzymes and method for preparing hydroxylated L-lysine or L-ornithine and analogs thereof” (COMMISSARIAT A L'ENERGIE ATOMIQUE ET AUX ENERGIES …, priority 2013, dated 2015)
